Results are given in words; binding and its absence hold for the method and conditions named. Some binding calls cover weakened binding; strength is not graded here.

The chains behind the UniProt entries cited, without tags or fusion partners. Residues count along the entry.
UniProt Q969D9, residues 29-159: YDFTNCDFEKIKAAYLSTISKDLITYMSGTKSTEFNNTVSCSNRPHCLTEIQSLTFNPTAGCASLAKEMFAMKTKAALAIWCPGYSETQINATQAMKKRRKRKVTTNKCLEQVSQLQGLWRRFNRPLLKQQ
UniProt P03973, residues 26-132: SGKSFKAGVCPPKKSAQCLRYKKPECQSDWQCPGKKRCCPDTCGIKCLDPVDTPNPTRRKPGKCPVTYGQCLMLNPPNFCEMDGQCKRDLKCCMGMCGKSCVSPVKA
UniProt P10451, residues 17-314: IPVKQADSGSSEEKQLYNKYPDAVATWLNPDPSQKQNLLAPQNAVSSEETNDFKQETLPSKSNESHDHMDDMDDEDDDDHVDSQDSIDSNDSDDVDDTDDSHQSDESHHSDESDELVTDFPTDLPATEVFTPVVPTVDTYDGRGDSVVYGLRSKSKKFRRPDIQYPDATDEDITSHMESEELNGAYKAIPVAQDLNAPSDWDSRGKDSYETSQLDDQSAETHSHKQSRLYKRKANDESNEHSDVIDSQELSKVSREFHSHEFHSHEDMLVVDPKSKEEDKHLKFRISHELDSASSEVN

One assay concerns the target T1, midkine (human) (UniProt P21741).
T1 sequence: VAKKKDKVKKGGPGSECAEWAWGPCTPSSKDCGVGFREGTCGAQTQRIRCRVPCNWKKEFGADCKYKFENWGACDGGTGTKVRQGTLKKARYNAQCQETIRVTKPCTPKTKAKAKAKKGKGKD
As to the kind of experiment: ELISA; 96-well plate coated with 0.25, 1 and 2 ug of AMP; 2 ug OPN added, 2 h at 37°C; bound OPN detected with rabbit anti-OPN and HRP-conjugated secondary antibody, read at 405 nm; both purified. (In an ELISA, binding on a coated surface is turned into a signal by an enzyme label.)

Assay [1] deals with thymic stromal lymphopoietin (TSLP) (human) (UniProt Q969D9). The description is as above.
In assay [2] the target is secretory leukocyte peptidase inhibitor (SLPI), recombinant human (human) (UniProt P03973). The description is as above.
The target in assay [3] is T2, human beta defensin-3 (hBD-3) (human) (UniProt P81534).
T2 sequence: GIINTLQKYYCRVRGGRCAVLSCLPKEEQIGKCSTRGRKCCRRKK
The description is as above.

The target in assay [4] is osteopontin (OPN), recombinant human (human) (UniProt P10451). Nature of the assay: SPR; BIAcore X-100; human OPN immobilised on a CM5 chip by amine coupling; AMPs injected at 31.25-500 nM in 10 mM HEPES pH 7.5, 150 mM NaCl, 0.005% surfactant P20, 3.4 mM EDTA, 30 ul/min; 1:1 binding model with drifting baseline; both purified.

In the case of “osteopontin (OPN), recombinant human (from UniProt P10451 17-314)”, the binding result (with midkine (human); in assay [1]; in assay [2]; in assay [3]) was “binds” each time.
“secretory leukocyte peptidase inhibitor (SLPI), recombinant human (from UniProt P03973 26-132)”: the binding result in assay [4] is reported as “binds”.
Same read-out and setting: to “thymic stromal lymphopoietin (TSLP) (from UniProt Q969D9 29-159)” belongs “binds”.

For the origin of these results see paper PMC4712133.
